Results as given in publication PMC8072491.
No constants are given. Whether binding was seen depends on the method and setting. Binding seen in cells or lysates may run through a third protein. Some results given as binding are weak or reduced against the parent protein; the word gives no strength.

Amino acid sequences for entries named in this document (tags omitted).
UniProt P19338: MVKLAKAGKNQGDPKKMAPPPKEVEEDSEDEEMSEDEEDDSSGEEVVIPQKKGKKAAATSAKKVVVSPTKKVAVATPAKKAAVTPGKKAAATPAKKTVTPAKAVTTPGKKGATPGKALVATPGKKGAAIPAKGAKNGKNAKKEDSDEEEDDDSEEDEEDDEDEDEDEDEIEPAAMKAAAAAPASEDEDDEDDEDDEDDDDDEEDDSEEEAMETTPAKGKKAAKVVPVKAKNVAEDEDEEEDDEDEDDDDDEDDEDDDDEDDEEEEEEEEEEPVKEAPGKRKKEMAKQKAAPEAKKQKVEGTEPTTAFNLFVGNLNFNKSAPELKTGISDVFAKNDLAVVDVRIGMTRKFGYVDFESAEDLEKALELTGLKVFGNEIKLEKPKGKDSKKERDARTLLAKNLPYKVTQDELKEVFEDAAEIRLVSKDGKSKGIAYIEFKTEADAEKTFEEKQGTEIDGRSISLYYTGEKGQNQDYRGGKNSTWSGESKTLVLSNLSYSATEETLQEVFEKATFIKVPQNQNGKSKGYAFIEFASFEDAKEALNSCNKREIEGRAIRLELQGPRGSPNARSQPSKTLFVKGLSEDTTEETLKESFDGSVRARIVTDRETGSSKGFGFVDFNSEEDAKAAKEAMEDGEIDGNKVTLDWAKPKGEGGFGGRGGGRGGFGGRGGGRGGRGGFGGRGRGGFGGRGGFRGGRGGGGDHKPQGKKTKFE

Columns and labels:
[1] = target: human nucleolin fused to the red fluorescent protein mKate2 (NCL-mKate2), expressed in yeast (human) (UniProt P19338); experiment: co-IP; lysate of TDP 2C yeast co-expressing TDP-43-GFP and NCL-mKate2; 1 mg total protein with 1 ug anti-NCL, anti-GFP or anti-RFP antibody, 16 h, 4°C; protein A-Sepharose; IP buffer 25 mM Tris-HCl pH 7, 75 mM NaCl, 1 mM EDTA, 2.5% glycerol, 0.2% NP-40, 0.5 mM DTT; Western blot; control without antibody
[2] = target: human nucleolin fused to GFP (NCL-GFP), expressed in HEK293T cells (human) (UniProt P19338); experiment: co-IP; lysate of HEK293T cells co-transfected with TDP-43-mKate2 and NCL-GFP; 200 ug total protein with 0.2 ug anti-NCL antibody, 16 h, 4°C; protein A-Sepharose; lysis buffer with 137 mM NaCl, 0.2% NP-40, 10% glycerol, 5 mM EDTA; with or without RNase A treatment of the lysate (2 ug, 4°C, 10 min); Western blot with anti-GFP and anti-TDP-43; non-transfected cells as control

Substance: wild-type human TDP-43 fused to GFP (TDP-43-GFP chimera), expressed in yeast (from UniProt Q13148 1-414)
- binding [1]: binds

Substance: human TDP-43 fused to mKate2 (TDP-43-mKate2), expressed in HEK293T cells (from UniProt Q13148 1-414)
- binding [2]: binds
